## Results of single-concentration screens

Sequences of proteins named here, by UniProt entry; tags and fusion partners are left off. Residues count along the entry.
UniProt Q8IDJ8, 1-583: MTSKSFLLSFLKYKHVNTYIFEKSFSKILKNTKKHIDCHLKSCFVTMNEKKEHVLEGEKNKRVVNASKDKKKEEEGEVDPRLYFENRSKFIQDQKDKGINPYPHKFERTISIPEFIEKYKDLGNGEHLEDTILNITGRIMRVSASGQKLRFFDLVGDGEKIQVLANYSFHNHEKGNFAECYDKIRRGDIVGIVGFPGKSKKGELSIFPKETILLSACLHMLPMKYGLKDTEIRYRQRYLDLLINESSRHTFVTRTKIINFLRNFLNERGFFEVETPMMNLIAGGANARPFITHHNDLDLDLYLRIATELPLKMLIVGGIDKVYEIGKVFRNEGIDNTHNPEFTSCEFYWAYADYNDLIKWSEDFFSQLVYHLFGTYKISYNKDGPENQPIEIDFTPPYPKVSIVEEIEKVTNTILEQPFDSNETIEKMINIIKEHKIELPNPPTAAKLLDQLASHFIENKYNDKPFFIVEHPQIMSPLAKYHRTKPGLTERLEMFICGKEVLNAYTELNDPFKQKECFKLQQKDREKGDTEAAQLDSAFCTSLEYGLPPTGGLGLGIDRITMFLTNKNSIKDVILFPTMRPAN
UniProt I6X8D2, whole entry: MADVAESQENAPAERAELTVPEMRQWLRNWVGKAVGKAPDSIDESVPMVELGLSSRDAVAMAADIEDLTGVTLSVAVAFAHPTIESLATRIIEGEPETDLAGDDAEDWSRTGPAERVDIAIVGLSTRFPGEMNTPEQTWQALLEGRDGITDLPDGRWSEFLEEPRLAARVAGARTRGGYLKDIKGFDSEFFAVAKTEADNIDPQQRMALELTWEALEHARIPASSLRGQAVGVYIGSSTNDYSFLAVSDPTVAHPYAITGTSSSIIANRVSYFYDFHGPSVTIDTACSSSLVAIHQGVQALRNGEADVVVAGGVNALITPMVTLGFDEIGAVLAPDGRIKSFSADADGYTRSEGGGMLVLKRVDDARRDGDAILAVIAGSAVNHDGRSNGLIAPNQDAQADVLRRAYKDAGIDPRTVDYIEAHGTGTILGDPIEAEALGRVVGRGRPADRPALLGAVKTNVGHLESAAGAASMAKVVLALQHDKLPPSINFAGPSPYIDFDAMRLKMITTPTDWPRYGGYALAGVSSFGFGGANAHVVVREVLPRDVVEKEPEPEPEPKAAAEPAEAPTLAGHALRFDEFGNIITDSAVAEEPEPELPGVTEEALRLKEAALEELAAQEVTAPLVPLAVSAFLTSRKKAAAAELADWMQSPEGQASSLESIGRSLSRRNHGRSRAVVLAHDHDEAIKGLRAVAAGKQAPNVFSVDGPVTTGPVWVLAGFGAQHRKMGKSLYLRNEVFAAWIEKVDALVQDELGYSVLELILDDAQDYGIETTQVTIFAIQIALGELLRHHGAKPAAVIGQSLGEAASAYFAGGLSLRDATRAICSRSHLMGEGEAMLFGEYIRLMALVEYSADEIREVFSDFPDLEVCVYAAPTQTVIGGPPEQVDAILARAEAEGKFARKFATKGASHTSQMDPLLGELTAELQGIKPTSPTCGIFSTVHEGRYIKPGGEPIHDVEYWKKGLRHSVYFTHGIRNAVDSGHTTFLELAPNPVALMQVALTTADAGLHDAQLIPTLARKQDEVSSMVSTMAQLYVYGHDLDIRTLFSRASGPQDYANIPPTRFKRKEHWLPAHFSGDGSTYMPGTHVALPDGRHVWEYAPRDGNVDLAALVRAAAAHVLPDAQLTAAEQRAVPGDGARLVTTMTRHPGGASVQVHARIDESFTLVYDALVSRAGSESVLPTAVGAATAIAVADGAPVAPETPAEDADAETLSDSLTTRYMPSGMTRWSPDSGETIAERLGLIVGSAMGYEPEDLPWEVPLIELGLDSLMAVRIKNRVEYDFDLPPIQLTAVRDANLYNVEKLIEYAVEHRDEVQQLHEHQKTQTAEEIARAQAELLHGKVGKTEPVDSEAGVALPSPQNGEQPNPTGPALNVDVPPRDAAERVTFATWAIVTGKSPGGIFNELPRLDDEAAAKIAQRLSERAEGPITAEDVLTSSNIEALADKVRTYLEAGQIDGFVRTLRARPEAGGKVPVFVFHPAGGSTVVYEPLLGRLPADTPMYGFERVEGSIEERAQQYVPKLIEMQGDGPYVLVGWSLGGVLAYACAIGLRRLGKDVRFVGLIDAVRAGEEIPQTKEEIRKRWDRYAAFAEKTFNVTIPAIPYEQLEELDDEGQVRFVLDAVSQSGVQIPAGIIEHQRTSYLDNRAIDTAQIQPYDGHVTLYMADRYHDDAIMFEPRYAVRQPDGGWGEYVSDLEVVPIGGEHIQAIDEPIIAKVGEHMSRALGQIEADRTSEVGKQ
UniProt P9WFT3, whole entry: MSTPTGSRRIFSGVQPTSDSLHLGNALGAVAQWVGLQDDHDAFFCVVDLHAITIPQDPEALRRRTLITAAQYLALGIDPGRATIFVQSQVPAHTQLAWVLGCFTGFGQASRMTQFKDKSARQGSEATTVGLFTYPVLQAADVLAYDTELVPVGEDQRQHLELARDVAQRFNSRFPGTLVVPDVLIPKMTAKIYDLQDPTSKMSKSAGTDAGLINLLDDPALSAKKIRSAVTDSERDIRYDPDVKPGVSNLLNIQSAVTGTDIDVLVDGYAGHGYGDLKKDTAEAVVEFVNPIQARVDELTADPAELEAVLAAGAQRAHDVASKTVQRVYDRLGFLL
UniProt Q4DA54, 1-478: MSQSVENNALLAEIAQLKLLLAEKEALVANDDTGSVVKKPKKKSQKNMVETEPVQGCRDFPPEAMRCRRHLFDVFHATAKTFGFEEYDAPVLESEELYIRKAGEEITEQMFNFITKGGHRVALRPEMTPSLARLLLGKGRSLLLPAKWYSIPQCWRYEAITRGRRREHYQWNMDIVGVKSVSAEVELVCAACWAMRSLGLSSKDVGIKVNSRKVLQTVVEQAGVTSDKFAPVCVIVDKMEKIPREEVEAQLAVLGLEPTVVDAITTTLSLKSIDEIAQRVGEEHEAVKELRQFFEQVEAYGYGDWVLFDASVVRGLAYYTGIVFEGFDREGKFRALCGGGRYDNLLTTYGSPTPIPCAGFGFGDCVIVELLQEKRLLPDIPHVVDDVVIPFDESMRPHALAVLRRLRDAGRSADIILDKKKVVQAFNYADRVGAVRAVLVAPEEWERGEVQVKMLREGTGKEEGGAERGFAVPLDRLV

Data taken from ChEMBL document CHEMBL3988442, “University of Dundee, Small-Polar-MMV Screening Library” (2021).

PfKRS1: 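Enzyme assay of the cytosolic lysyl-tRNA synthetase in 384-well plates, read by luminescence. Target: Lysine-tRNA ligase, Plasmodium falciparum 3D7 (UniProt Q8IDJ8). Compounds at 30 µM. Direction is inferred from only a few compounds that gave an IC50; most scored high, so higher reads as stronger inhibition. About 69,000 compounds were tested under these conditions; 0.071% (about 49) showed 50% or more at least once.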
Pks13 thioesterase: 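Enzyme assay of the thioesterase domain of polyketide synthase 13; the read-out is not stated. Target: Polyketide synthase Pks13, Mycobacterium tuberculosis (UniProt I6X8D2). Compounds at 30 µM. The record gives no direction; the compounds picked for IC50 retests had high values, so higher reads as stronger inhibition. Size under these conditions: about 67,000 compounds, about 300 of them at 50% or above in at least one test.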
MtTrpRS: 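Enzyme assay of tryptophanyl-tRNA synthetase; the read-out is not stated. Target: Tryptophan-tRNA ligase, Mycobacterium tuberculosis (UniProt P9WFT3). Compounds at 10 µM. Higher most likely means stronger inhibition; the record gives no direction and few retests gave an IC50. About 65,000 compounds were tested under these conditions; 0.098% (about 64) showed 50% or more at least once.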
TcHisRS: 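Histidine-tRNA ligase, Trypanosoma cruzi CL Brener (UniProt Q4DA54). Enzyme assay of histidyl-tRNA synthetase; the read-out is not stated. Compounds at 30 µM. Higher reads as stronger inhibition (inferred: compounds with an IC50 in retests scored well above the rest). Size under these conditions: about 69,000 compounds, about 31 of them at 50% or above in at least one test.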

Each number is a percent effect as filed. The controls that fix the scale are not given in the record; negative values are as filed. Compounds were drawn at random from those tested, without regard to their results.

Result for CC(CNC(=O)c1ccco1)N1CCc2sccc2C1 (stereo not shown) was PfKRS1: 3.037%; Pks13 thioesterase: -15.15%; MtTrpRS: -1.795%; TcHisRS: 0.8772%. CS(=O)(=O)c1ccc(NC(=O)NCc2ccc3c(c2)CCC3)cn1 read PfKRS1: 3.235%; MtTrpRS: 0.07424%; TcHisRS: 1.527%. Result for COCC(NC(=O)c1cn(-c2cccc(Cl)c2F)nn1)C1CC1 (stereo not shown) was PfKRS1: 3.918%; Pks13 thioesterase: -7.227%; MtTrpRS: 2.983%; TcHisRS: 3.727%. For CCOc1ccc(N(C)Cc2nc(C)c(C)o2)cc1 the result was PfKRS1: 3.727%; Pks13 thioesterase: -0.3652%; MtTrpRS: 15.6%; TcHisRS: 0%. CCn1cnnc1C1CCN(C(=O)c2ccc(OC(C)C)nc2)CC1 read PfKRS1: 2.407%; Pks13 thioesterase: -0.6846%; MtTrpRS: 4.989%; TcHisRS: 0.5025%. O=C(NC1CC1)c1cc(NC(=O)N2CCCC(O)C2)ccc1Cl (stereo not shown) gave PfKRS1: 2.916%; Pks13 thioesterase: -11.12%; MtTrpRS: -2.056%; TcHisRS: 4.132%.

O=C(O)c1ccnc(-c2ccnc(N3CCC(F)(F)CC3)n2)c1 gave PfKRS1: 0.1663%; Pks13 thioesterase: -9.898%; MtTrpRS: -1.484%; TcHisRS: 2.532%. CCC(=O)NCCc1cc(N2CCN(C(C)=O)CC2)nc(C2CC2)n1 read PfKRS1: 4.042%; Pks13 thioesterase: -34.65%; MtTrpRS: -4.431%; TcHisRS: 5.946%. O=C(c1ccc(-c2cccc3c2CCNC3)o1)N1CCCC1 gave PfKRS1: 4.629%; Pks13 thioesterase: -16.83%; MtTrpRS: 0.4831%; TcHisRS: 16.8%. For CC(C)NC(=O)N1CC[C@@H](N(C)C)[C@@H]1Cc1ccccc1 the result was PfKRS1: 4.335%; Pks13 thioesterase: -11.22%; MtTrpRS: -2.885%; TcHisRS: 3.448%. For O=C(NCC1Cn2nnc(-c3ccncc3)c2CO1)c1ccsc1 (stereo not shown) the result was PfKRS1: 4.491%; Pks13 thioesterase: 2.934%; MtTrpRS: -2.562%; TcHisRS: 0%. With Cc1cc(CNC(=O)CC2CN(C(=O)OC(C)(C)C)C2)ccc1F the screen gave PfKRS1: 1.338%; Pks13 thioesterase: 6.31%; MtTrpRS: 3.461%; TcHisRS: 0.9804%.

With CC(C)C1=NOC2(CCN(C(=O)C3CCCC3)CC2)C1 the screen gave PfKRS1: -1.494%; Pks13 thioesterase: -13.4%; MtTrpRS: -7.865%; TcHisRS: -0.5917%. Cc1cc(CC(C)NC2CCSCC2)[nH]n1 (stereo not shown) read PfKRS1: 2.889%; Pks13 thioesterase: -17.45%; MtTrpRS: 2.576%; TcHisRS: 4%. Result for O=C(c1cc[nH]n1)N1CC[C@@H]2CN(Cc3ccccc3)S(=O)(=O)[C@@H]2CC1 was PfKRS1: 2.005%; Pks13 thioesterase: -17.3%; MtTrpRS: -3.453%; TcHisRS: -194.6%. Result for c1ccc2cc(OCCN3CCOC(Cn4cncn4)C3)ccc2c1 (stereo not shown) was PfKRS1: 0.4839%; Pks13 thioesterase: -13.94%; MtTrpRS: 3.216%; TcHisRS: 1.88%. COCCN1CCC(c2ncc(C(=O)N3CCOCC3)c(C)n2)CC1 read PfKRS1: 3.021%; Pks13 thioesterase: 5.215%; MtTrpRS: -3.357%; TcHisRS: -0.3759%. With CNC(=O)[C@@H](c1ccccc1OC)N1CCC[C@H]1C(=O)NC1CC1 the screen gave PfKRS1: 5.657%; MtTrpRS: -3.067%; TcHisRS: 6.468%.

With COc1ccc(-c2cnc(CN3CCCC3CO)o2)cc1 (stereo not shown) the screen gave PfKRS1: -2.191%; Pks13 thioesterase: 12.5%; MtTrpRS: 11.25%; TcHisRS: 4.04%. O=C(c1n[nH]c2c1CCC2)N1CCCC1c1nc(-c2ccccn2)no1 (stereo not shown) gave PfKRS1: 3.744%; Pks13 thioesterase: 0%; MtTrpRS: 0.455%; TcHisRS: 1.064%. COCC(=O)N1CCN(CCn2cccn2)c2nc(C)ccc2C1 read PfKRS1: 4.561%; Pks13 thioesterase: -5.867%; MtTrpRS: -3.902%; TcHisRS: 11.21%. CN1CCN(Cc2ccncc2)Cc2cccnc21 gave PfKRS1: -0.6216%; Pks13 thioesterase: -15.19%; MtTrpRS: -5.424%; TcHisRS: 5.882%. For Cc1ccc(CN(C)C(=O)c2cc(Cn3ccnc3C(C)C)[nH]n2)o1 the result was PfKRS1: 7.101%; Pks13 thioesterase: -9.547%; MtTrpRS: 5.948%; TcHisRS: 0%. With O=C(Cc1cccc(F)c1F)NS(=O)(=O)c1cncc(Cl)c1 the screen gave PfKRS1: 5.411%; Pks13 thioesterase: -6.141%; MtTrpRS: 0.6353%; TcHisRS: 6.897%.

With COCCn1ccc2cc(NC(=O)N(C)C(C)CSC)ccc21 (stereo not shown) the screen gave PfKRS1: -0.3706%; Pks13 thioesterase: 8.675%; MtTrpRS: 1.319%; TcHisRS: 3.333%. O=C(CCc1ccc(OC(F)(F)F)cc1)N1CCCS1(=O)=O read PfKRS1: 0.4566%; Pks13 thioesterase: 1.856%; MtTrpRS: 0.3812%; TcHisRS: 3.448%. CSc1ccccc1NC(=O)N1C[C@@H](N(C)C)[C@H](c2ccc(C)cc2)C1 read PfKRS1: 3.693%; Pks13 thioesterase: -29.57%; MtTrpRS: -2.472%; TcHisRS: 1.212%. For Cc1cc(CNC(=O)Nc2cccc(COCCOC(C)C)c2)no1 the result was PfKRS1: 6.71%; Pks13 thioesterase: -18.2%; MtTrpRS: -1.861%; TcHisRS: 11.31%. Result for CCN(CC)C(C(=O)NCc1ccc(N2CCCC2)nc1)C(C)C (stereo not shown) was PfKRS1: -0.07225%; Pks13 thioesterase: -6.953%; MtTrpRS: -3.834%; TcHisRS: 3.759%. For Cc1cnn(CC2CCCCN2Cc2nc(-c3ccoc3)no2)c1 (stereo not shown) the result was PfKRS1: 7.754%; MtTrpRS: 1.8%; TcHisRS: 0%.

With CC(C)CCn1cc(C(C(=O)O)N2CCC(N3CCSCC3)CC2)cn1 (stereo not shown) the screen gave PfKRS1: -1.84%; Pks13 thioesterase: -8.444%; MtTrpRS: -1.723%; TcHisRS: 7.463%.

The last 4 entries again:

- Cc1cc(CNC(=O)Nc2cccc(COCCOC(C)C)c2)no1 | PfKRS1: 6.71%; Pks13 thioesterase: -18.2%; MtTrpRS: -1.861%; TcHisRS: 11.31%
- CCN(CC)C(C(=O)NCc1ccc(N2CCCC2)nc1)C(C)C (stereo not shown) | PfKRS1: -0.07225%; Pks13 thioesterase: -6.953%; MtTrpRS: -3.834%; TcHisRS: 3.759%
- Cc1cnn(CC2CCCCN2Cc2nc(-c3ccoc3)no2)c1 (stereo not shown) | PfKRS1: 7.754%; MtTrpRS: 1.8%; TcHisRS: 0%
- CC(C)CCn1cc(C(C(=O)O)N2CCC(N3CCSCC3)CC2)cn1 (stereo not shown) | PfKRS1: -1.84%; Pks13 thioesterase: -8.444%; MtTrpRS: -1.723%; TcHisRS: 7.463%